Laboratory results published in patent US20240342126A1, “HALLUCINOGEN-FATTY ACID COMBINATION” (Mindset Pharma Inc., priority 2021, published 2024).
“Also recorded” adds a separate entry of the source. Like-named read-outs stand apart in the source and are kept apart here. For at least one compound, name, drawing or mass did not settle the structure.

Key:
C57BL/6J mice = assay: Mouse head twitch experiments; assay type: in vivo; conditions: equimolar dose of linoleic acid, SC
Procedure: Male, C57BL/6J mice (body weight range 20-30 g) were dosed with the appropriate dose(s) of test compound, or combination of test compounds, and following pre-treatment, the animals were placed in individual observation chambers. Animals were visually assessed for the incidence head twitches continuously over a 1 hr period. Head twitches were defined as a rapid jerk of the head which was not elicited by an external tactile stimulus (Corne S J, Pickering R W (1967) Psychopharmacologia 11 (1): 65-78). Each head twitch was individually counted by a trained observer, and the data expressed as the mean±SEM of 4-10 mice per group. In addition to the total number of head twitches recorded over the 1 hr observation period, head twitches were also scored according to each specific 10 min time bin within the 1 hr observation period (i.e. 0-10 min, 10-20 min, 20-30 min, etc).
Two types of experiments were conducted. In one, the effect of linoleic acid in combination with a test compound (psilocybin or 1-4) was studied. In these experiments, both test compounds, or saline control was injected subcutaneously (SC) 1 min prior to testing. […] In these experiments, M100907 (0.5 mg/kg IP) was injected 30 min prior to a single dose of test compound (i.e. psilocybin or I-4). […]

tobacco use disorder = conditions: cited from earlier work

SMILES: CN(C)CCc1c[nH]c2cccc(OP(=O)(O)O)c12 [psilocybin]
- head twitch response of combination with linoleic acid vs test compound alone (C57BL/6J mice): greater head twitch response; also recorded: more head twitches
- abstinence rate (tobacco use disorder; 12 months follow-up): 67%
- abstinence rate (tobacco use disorder; six months follow-up): 80%
